Measured values from PubChem BioAssay AID1117319 (Southern Research Institute, 2015).
“And” between values parts separate entries of the source, which are not always exact repeats. Equal values may be shown once. Screen size: about 260,000 compounds; about 1,500 (0.58%) were called active. Inconclusive results, whose numbers are uncertain, are shown with a selection of clear calls.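 How the source made its calls: active means inhibition above a set limit at one or more doses, reproduced on every date tested; inconclusive means results disagree between test dates, or hit never tested in dose response; inactive means the rest.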

Amino acid sequences for entries named in this document (tags omitted). A change or cut given only in a name is not applied to a line headed by its entry.
UniProt P69720: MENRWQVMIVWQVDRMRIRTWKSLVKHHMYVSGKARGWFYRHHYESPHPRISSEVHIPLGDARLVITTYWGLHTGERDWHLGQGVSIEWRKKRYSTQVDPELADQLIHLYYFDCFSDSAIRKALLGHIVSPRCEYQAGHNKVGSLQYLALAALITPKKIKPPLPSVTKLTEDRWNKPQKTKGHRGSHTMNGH
UniProt P69721: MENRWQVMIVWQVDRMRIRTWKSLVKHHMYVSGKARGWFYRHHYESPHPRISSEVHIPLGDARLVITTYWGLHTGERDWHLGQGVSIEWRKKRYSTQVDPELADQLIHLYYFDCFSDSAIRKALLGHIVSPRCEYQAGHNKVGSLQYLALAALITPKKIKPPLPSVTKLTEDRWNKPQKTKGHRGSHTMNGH
UniProt P69722: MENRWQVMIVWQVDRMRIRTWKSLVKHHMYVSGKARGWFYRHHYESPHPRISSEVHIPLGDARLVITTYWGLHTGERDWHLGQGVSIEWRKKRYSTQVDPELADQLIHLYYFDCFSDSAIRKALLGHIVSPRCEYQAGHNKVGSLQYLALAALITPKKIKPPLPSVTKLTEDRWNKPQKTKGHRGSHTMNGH
UniProt P69723: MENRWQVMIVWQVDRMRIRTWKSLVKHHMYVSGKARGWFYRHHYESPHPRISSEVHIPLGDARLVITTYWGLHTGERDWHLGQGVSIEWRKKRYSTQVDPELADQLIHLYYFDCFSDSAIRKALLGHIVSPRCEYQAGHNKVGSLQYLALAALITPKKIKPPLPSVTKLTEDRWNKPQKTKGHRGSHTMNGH
UniProt Q9HC16: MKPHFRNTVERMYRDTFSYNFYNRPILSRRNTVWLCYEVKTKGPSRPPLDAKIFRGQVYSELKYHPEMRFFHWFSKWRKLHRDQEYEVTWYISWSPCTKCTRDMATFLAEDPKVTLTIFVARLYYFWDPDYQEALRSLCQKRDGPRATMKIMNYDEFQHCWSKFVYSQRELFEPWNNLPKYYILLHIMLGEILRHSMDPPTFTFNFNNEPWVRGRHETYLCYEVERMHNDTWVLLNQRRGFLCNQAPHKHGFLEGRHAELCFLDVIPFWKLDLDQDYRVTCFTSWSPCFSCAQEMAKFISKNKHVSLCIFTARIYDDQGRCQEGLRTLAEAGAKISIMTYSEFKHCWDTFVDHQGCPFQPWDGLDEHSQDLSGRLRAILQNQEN

target: Virion infectivity factor (Human immunodeficiency virus type 1 group M subtype B (isolate BH10)) + Virion infectivity factor (Human immunodeficiency virus type 1 group M subtype B (isolate BRU/LAI)) + Virion infectivity factor (Human immunodeficiency virus type 1 group M subtype B (isolate PCV12)) + Virion infectivity factor (Human immunodeficiency virus type 1 group M subtype B (isolate HXB2)) + DNA dC->dU-editing enzyme APOBEC-3G (Homo sapiens) (UniProt P69720+P69721+P69722+P69723+Q9HC16); assay: inhibitors of Vif binding to APOBEC3G peptide, primary screen, biochemical, TR-FRET, GST-Vif 1-94, biotin-A3G peptide, dose response retest (AID 1117319); details: hits give high values;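 further: Vif residues 1-94 fused to GST binding biotinylated APOBEC3G peptide 110-148; 0% = full assay without inhibitor and 100% = GST in place of GST-Vif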

Structure (SMILES) | inhibition
Cc1c(Br)cc(C(=O)O)c(C)c1C | inconclusive: 40.6%
CCc1ccccc1NC1=NCC(=O)N1Cc1ccc(OC)cc1 | inactive: -4.85%
CCOC(=O)CCCc1sc(N)nc1-c1[nH]c(=O)[nH]c1C | inconclusive: 42.3%
N#Cc1cc(-c2ccccc2)oc1NC(=O)c1ccccc1 | inconclusive: 47.8%
Cc1ccc(/C=N/n2cnc3sc4c(c3c2=O)CCCC4)o1 | inactive: 8.22%
O=C(Nc1cccnc1)C1(c2ccc(Cl)cc2)CCCC1 | inconclusive: 39.1%
CN(CCC#N)C(=S)Nc1ccc(F)cc1 | inconclusive: 33.3%
NC1=CC(=O)C(=O)c2ccccc21 | inactive: 6.05%
Cc1nc2ccccc2nc(=O)c1NNc1ccc([N+](=O)[O-])cc1 | inconclusive: 51.2%
COc1cccc(CN2C[C@]34C=C[C@@H](C[C@@H]3S2(=O)=O)O4)c1 | inconclusive: 39.4%
Cc1cc(C)c(S(=O)(=O)/N=C2\C=CC(=O)C(Cl)=C2)c(C)c1 | inconclusive: 47.9%
COc1cnc(N(C)C)nc1Sc1cccc(Cl)c1 | inconclusive: 34.4%
COc1ccccc1NC(=O)C1=C(C)NC(=O)NC1c1ccccc1[N+](=O)[O-] (configuration not stated) | inconclusive: 33.7%
CCc1c(C(=O)Nc2nnc(C3CC3)s2)csc1C | inconclusive: 9.5%
CN(O)/C=c1/ccc2c(n1)C(=O)C=CC=2 | inconclusive: 41.9%
Cc1ccc(Cl)cc1N1CCN(C(=O)CN(c2ccccc2)S(=O)(=O)N(C)C)CC1 | inconclusive: 44.4%
CNc1nc(-c2ccc3c(c2)CCN3C(=O)c2cccc(F)c2)cs1 | inconclusive: 34.7%
CC(C)c1nnc(NC(=O)CC(=O)Nc2ccccc2C(=O)O)s1 | inactive: 15.4%
COc1cc(NC(=O)c2ccc(Cl)cc2Cl)ccc1NC(=O)c1cccs1 | inconclusive: 33.3%
O=S(=O)(c1ccc(Br)cc1)N1CCOC12CCCCC2 | inconclusive: 48.6%
CCOC(=O)c1c(N)sc(=S)c2c1CCC2 | inconclusive: 91.7%
CC(=O)Nc1ccc(S(C)(=O)=O)c(C)c1 | inconclusive: 43.3%
O=C(O)CCN=C1CCCc2ccccc2N1 | inconclusive: 61.5%

Structure (SMILES) | inhibition
COC(=O)c1c(NC(=O)CN2C(=O)c3ccccc3C2=O)sc(Cc2ccc3c(c2)OCO3)c1C | inconclusive: 38.7%
COCCN1C=C2C(=O)C(C)(OC(=O)CCC(=O)OC)C(=O)C=C2C=C1C1CC1 (configuration not stated) | inactive: 10.6%
COc1ccc(CN2CCNC(=O)C2CC(=O)NCCSc2nccn2C)cc1OC (configuration not stated) | inconclusive: 45.7%
COc1cccc(C2=NNC(=NCc3ccccc3)SC2)c1 | inconclusive: 57%
CCC(=O)N1CCc2cc(S(=O)(=O)NC(C(=O)NCc3ccccc3)C(C)C)ccc21 (configuration not stated) | inconclusive: 33.4%
CCCCNC(=O)CCn1nc(-c2ccccc2)c2ccccc2c1=O | inactive: -4.86%
Cc1ccc(C(C)C)c(OCc2nnc3n2CCCCC3)c1 | inconclusive: 51.6%
Cc1ccc(C2/C(=C(/O)c3ccc(Br)cc3)C(=O)C(=O)N2Cc2ccco2)o1 (configuration not stated) | inconclusive: 47.8%
Clc1ccc(Cl)c(-c2nn3c(COc4ccccc4)nnc3s2)c1 | inconclusive: 57.8%
CC(OC(=O)c1cc[n+]([O-])cc1)C(=O)Nc1ccc(Cl)cn1 (configuration not stated) | inconclusive: 52.2%
Nc1ccc(C(=O)Nc2ccc3nc(-c4cccnc4)[nH]c3c2)cc1 | inactive: 1.2%
Cc1cc(C)nc(N2CCCC(C(=O)NCc3ccc4c(c3)OCO4)C2)n1 (configuration not stated) | inactive: -5.32%
O=C1CN(C(=O)/C=C/c2ccco2)c2ccccc2N1 | inconclusive: 35.4%
O=C1CN(C(=O)COC(=O)/C=C/c2ccc(S(=O)(=O)N3CCOCC3)cc2)c2ccccc2N1 | inconclusive: 33.7%
Cc1cc(N)n2nc(-c3ccc(C(C)(C)C)cc3)cc2n1 | inconclusive: 49.6%
O=C(O)CCN1/C(=C/C=Nc2ccccc2)Oc2ccccc21 | inactive: 20.6%
Cc1occc1-c1nnc(SCC(=O)Nc2nccs2)n1CCc1ccccc1 | inconclusive: 49.1%
COc1ccc2cc(/C=N/NC(=O)c3c(Cl)cnn3C)c(Cl)nc2c1 | inconclusive: 35.7%
O=C(O)c1ccc2nc(-c3ccco3)c(-c3ccco3)nc2c1 | inactive: -0.3%
O=CN1CCN(C2CC(=O)N(c3ccc(Br)cc3)C2=O)CC1 (configuration not stated) | inactive: 22.2%
O=C1C(Cl)=C(N2CCCCCC2)C(=O)N1c1ccccc1 | inactive: 4.82%
Nc1ccc(C(=O)Nc2ccc3cc(S(=O)(=O)O)ccc3c2)cc1 | inactive: 7.06%
CCOC(=O)CSC1=Nc2ccccc2C2=NC(CC(=O)NCc3ccccc3)C(=O)N12 (configuration not stated) | inconclusive: 39.8%

Structure (SMILES) | inhibition
O=C(Nc1nc2ccccc2s1)C1CCN(S(=O)(=O)c2cc([N+](=O)[O-])ccc2Cl)CC1 | inconclusive: 36.9%
Cc1cc(C(=O)NNC(=S)NC(C)c2ccccc2)c2ccccc2n1 (configuration not stated) | inconclusive: 53%
CCOC(=O)CN(C(=O)CSc1nnc(COc2ccc(OC)cc2)n1C)c1ccccc1 | inactive: 0.19%
Cc1cc(=O)oc2cc(OS(C)(=O)=O)ccc12 | inconclusive: 43.5%
CC1CCCC(C)N1C(=O)c1cc(F)c(F)cc1Cl (configuration not stated) | inconclusive: 50.7%
Cc1nn(CC#N)c(=O)n1-c1ccc(F)cc1 | inactive: 0.42%
Cc1cccc(CN2CCN(CC(=O)N3CCCC3)C2=O)c1 | inconclusive: 43%
O=C(Nc1ccccc1)c1cccnc1NCCc1ccccc1 | inconclusive: 62%
CCc1ccc(NC(=O)C2CC(=O)Nc3ncnn32)cc1 (configuration not stated) | inconclusive: 43.5%
O=C(COC(=O)/C=C/c1ccc(F)cc1)Nc1ccccc1-c1ccccc1 | inconclusive: 40.1%
CCOC(=O)c1cn(CC)c2ccc(S(=O)(=O)N3CCC(C)CC3)cc2c1=O | inconclusive: 52.7%
Cc1cccc(NC(=O)CN2CCN(C(=O)c3oc4c(Cl)cccc4c3C)CC2)c1C | inactive: -10%
COc1cc(-c2nc(CN3CCN(c4ncccn4)CC3)c(C)o2)ccc1F | inconclusive: 51.8%
Nc1ccccc1S(=O)(=O)NC1=NCCCCC1 | inconclusive: 38%
Cc1ccc(S(=O)(=O)N2CCCCC2C(=O)N2CCN(Cc3ccccc3)CC2)cc1 (configuration not stated) | inconclusive: 50.1%
Cc1cc(Cl)c(S(=O)(=O)Nc2ccc(Cl)cn2)cc1OCC(N)=O | inconclusive: 34.7%
O=C(Cc1ccccc1)Nc1ccccc1C(=O)Nc1ccccc1 | inactive: 9.21%
Cc1ccc2nc(NC(=O)C3CCN(S(=O)(=O)c4cc([N+](=O)[O-])ccc4Cl)CC3)sc2c1 | inconclusive: 33.1%
CCCn1c(SCC(=O)Nc2ccc(OC)cc2)nnc1-c1ccncc1 | inconclusive: 49.4%
CCn1c(SCC(N)=O)nc2c(c1=O)C1(CCCC1)Cc1ccccc1-2 | inconclusive: 34.5%
Cc1nc2cc(NCc3ccc(Cl)cc3)ccc2n1C | inconclusive: 38.2%
CC(C)N(Cc1nc2ccccc2[nH]1)C(C)C | inconclusive: 35.2%
Cc1ccc(SC2=C(Sc3ccc(C)cc3)C(=O)c3ccccc3C2=O)cc1 | inconclusive: 63.4%

Structure (SMILES) | inhibition
C/C(=N\NC(=O)c1nn(C)cc1Br)c1ccncc1 | inconclusive: 34.4%
COc1c(C)cc(Br)cc1C(=O)NCc1cccnc1 | inconclusive: 34.9%
Cc1nn(-c2ccccc2)c(=O)c2noc(C)c12 | inconclusive: 48.9%
CCCCn1c(SCC(=O)NCC2CCCO2)nc2ccc(N3CCOCC3)cc2c1=O (configuration not stated) | inconclusive: 25.9%
O=C(Nc1ccc(-c2cn3ccsc3n2)cc1)C1CC1 | inconclusive: 47.7%
C=CCN1C(=O)C(CC(=O)Nc2ccc(C)cc2)SC1=Nc1c(C)n(C)n(-c2ccccc2)c1=O (configuration not stated) | inactive: 4.69%
CCc1cc2cccc(C)c2nc1SCC(=O)N1CCN(C(=O)c2ccco2)CC1 | inactive: 5.89% and inactive: -1.51%
CCC(=O)N1CCc2cc(S(=O)(=O)N3CCN(c4ccccn4)CC3)ccc21 | inconclusive: 53.7%
c1ccc(-c2ccc3c(c2)NCCN3)cc1 | inconclusive: 52.7%
O=S(=O)(c1ccccc1)N1CCN(CC2CC3C=CC2C3)CC1 (configuration not stated) | inconclusive: 37.8%
O=[N+]([O-])c1ccccc1/C=N/NC1=NCCCCC1 | inconclusive: 51.3%
CNC(=O)COc1ccc2oc3c(c2c1)CCCC3 | inconclusive: 62.6%
Cc1ccc2oc(=O)n(CC(=O)O)c2c1 | inconclusive: 57.9%
CC(C)Cn1c(=O)c(-[n+]2ccccc2)c([O-])c2ccccc21 | inconclusive: 49.5%
Cc1ccc(C(=O)Nc2ccc(F)cc2)o1 | inactive: -0.54%
COc1ccccc1NC(=O)C(CCS(C)(=O)=O)N1C(=O)c2ccccc2C1=O (configuration not stated) | inconclusive: 30.6%
CC(C(=O)Oc1ccc2c(c1)OCO2)N1C(=O)c2ccccc2C1=O (configuration not stated) | inconclusive: 35.6%
O=C(O)c1ccc(N/N=C/C2=Cc3ccccc3OC2)cc1 | inconclusive: 48.9%
Cc1ccccc1Cn1ccc(-c2ccc3c(c2)OCO3)n1 | inconclusive: 43.9%
CCc1c(C)sc(NC(=O)Cn2nc(C)c([N+](=O)[O-])c2C)c1C(N)=O | inconclusive: 45.8%
Cc1nn(-c2cccc(Cl)c2)c2nc(C(F)(F)F)[nH]c(=O)c12 | inconclusive: 45.5%
CC(C)(C)c1cc(C(=O)N/N=C/c2ccccn2)n[nH]1 | inconclusive: 44.3%
Brc1ccc(-c2nnc3ccc(Nc4ccccc4)nn23)cc1 | inconclusive: 38.2%

3 successive records from above, quoted:
Structure (SMILES) | inhibition
Cc1ccccc1Cn1ccc(-c2ccc3c(c2)OCO3)n1 | inconclusive: 43.9%
CCc1c(C)sc(NC(=O)Cn2nc(C)c([N+](=O)[O-])c2C)c1C(N)=O | inconclusive: 45.8%
Cc1nn(-c2cccc(Cl)c2)c2nc(C(F)(F)F)[nH]c(=O)c12 | inconclusive: 45.5%
